Values joined by “and” are separate entries in the source; they are usually repeats but may differ in a detail not shown here. Identical values can stand only once. The list shows a part of the results. These are further read-outs of the screen, such as a control signal, another cell line or another target. No call is given for them. The list favours compounds with an active or inconclusive main result. Words in brackets tell the shape of the fitted curve; partial curves, single points and poor fits give uncertain potencies.
Assay: qHTS Assay to Find Inhibitors of Chronic Active B-Cell Receptor Signaling
Details: ABC-DLBCL IkBa-CBG/CBR reporter, luminescence ratio (green luciferase fused to IkBa over red control in TMD8 lymphoma cells), 4 h
Outline: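 TMD8 human ABC-DLBCL cells with doxycycline-inducible IκBα–green luciferase fusion and unfused red luciferase, in 0.5% FBS medium; compounds up to 46 uM, 4 h at 37C. Green/red luminescence ratio, filter-overlap corrected, fitted to concentration-response curves.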

[1] = measured here: CBR red luminescence, cell number
[2] = measured here: IkBa-CBG green luminescence

| SMILES | AC50 [1] | AC50 [2] |
| --- | --- | --- |
| O=C(Nc1nccs1)c1ccc(Br)s1 | 25.1 µM [falling, single point] | – |
| CC(C(=O)Nc1ccccc1-c1ccccc1)N1CCCCC1 (centres undefined) | 7.31 µM [falling, partial curve, poor fit] | – |
| Cc1ccc(Nc2nc(C)nc3c2oc2ccccc23)cc1 | 10 µM [falling, partial curve] | – |
| Cn1c(=N)n(CC(=O)c2ccc(F)cc2)c2ccccc21 | 14.1 µM [falling, single point] | – |
| C/C(Cn1nc([N+](=O)[O-])cc1C)=N\NC(=O)c1ccc(O)cc1O | 8.91 µM [falling, partial curve, poor fit] | – |
| CCc1n[nH]c2c1/C(=N\O)CC(C)(C)C2 | 6.31 µM [rising, single point] | – |
| COc1cccc2sc(NC(=O)CS(=O)(=O)c3ccc(C)cc3)nc12 | 15.8 µM [falling, partial curve] | 6.31 µM [rising, full curve, poor fit] |
| Cc1ccccc1NC(=O)C(=O)NCc1ccccn1 | 13 µM [falling, single point] | – |
| CCCCN(CC)C(=O)CSc1nc2n[nH]c(C)c2c(=N)n1-c1cccc(C)c1 | 11.2 µM [falling, partial curve, poor fit] and 20 µM [falling, single point] | 17.8 µM [rising, partial curve, poor fit] |
| O=C(CSc1cccc(C(F)(F)F)c1)Nc1cc(S(=O)(=O)N2CCCC2)ccc1Cl | 29.1 µM [falling, single point] | – |
| COc1ccccc1NC(=O)c1ccc2nc(C)sc2c1 | 22.4 µM [falling, single point] | – |
| N/C(=N\OC(=O)c1ccco1)c1ccc(Br)cc1 | 1.41 µM [rising, full curve, poor fit] | – |
| Cc1ccccc1C(=O)NNC(=O)Nc1ccccc1 | 17.8 µM [falling, single point] | – |
| CCOC(=O)c1nc(Nc2ccc(C(=O)O)cc2)c2ccccc2n1 | 17.8 µM [falling, partial curve, poor fit] | – |
| COc1cc(C2C3=C(CCCC3=O)Nc3ccc4ncccc4c32)ccc1O (centres undefined) | – | 12.6 µM [falling, partial curve, poor fit] |
| O=C(Nc1ccc(Cl)cc1)Nc1ccccc1C(=O)NCc1ccco1 | 23.1 µM [falling, partial curve] | – |
| CCN1C(=O)[C@H]2[C@@H](c3ccc(-c4cccc(Cl)c4)c(OC)c3)N[C@@](C)(C(=O)OC)[C@H]2C1=O | 2.91 µM [falling, partial curve] | – |
| Cc1nn(C)c(C)c1/C=C/C(=O)c1ccccc1 | 29.1 µM [falling, single point] | – |
| COc1ccc(NC(=O)C2CCCN(C(=O)Nc3ccc(F)cc3)C2)cc1 (centres undefined) | 12.6 µM [rising, single point] | – |
| O=C(N/N=C/c1cnc(N2CCOCC2)s1)c1ccccc1 | 11.2 µM [falling, partial curve, poor fit] | – |
| O=C(COC(=O)CN1C(=O)COc2ccccc21)NCc1ccc(F)cc1 | 0.326 µM [rising, partial curve, poor fit] | – |

| SMILES | AC50 [1] | AC50 [2] |
| --- | --- | --- |
| COc1ccc(S(=O)(=O)N2CCc3ccccc32)cc1C(=O)OCc1c(C)noc1C | 0.562 µM [falling, full curve, poor fit] | – |
| Cc1ccccc1NC(=O)c1nnn(-c2ccc3c(c2)OCCO3)c1N | 11.2 µM [falling, partial curve] | – |
| CCC(C)Oc1cc(-c2ccnc(Nc3cccc(Cl)c3)n2)ccn1 (centres undefined) | 11.2 µM [falling, partial curve] | 6.31 µM [rising, full curve] |
| CN(C)CC/C=C1\c2ccccc2COc2ccccc21 | 20 µM [falling, single point] | – |
| O=C1CSc2ccc(S(=O)(=O)NCc3ccc(Cl)cc3)cc2N1 | 10 µM [falling, single point] | – |
| N#C/C(=C(/O)COC(=O)c1ccc(O)cc1)c1nc2ccccc2[nH]1 | 17.8 µM [falling, partial curve, poor fit] | – |
| CN(C)S(=O)(=O)c1ccc(-c2csc(N/N=C/c3ccco3)n2)cc1 | 11.2 µM [falling, partial curve, poor fit] | – |
| Cc1noc(C)c1COC(=O)c1cccc(N(C)C)c1 | 25.1 µM [rising, single point] | 11.2 µM [falling, partial curve, poor fit] |
| CS(=O)(=O)Nc1ccccc1C(=O)NCCSc1ccccc1 | 4.47 µM [rising, partial curve, poor fit] | – |
| Brc1cccc(CNc2nc3ccccc3n2CCN2CCCCC2)c1 | 7.08 µM [falling, partial curve, poor fit] | – |
| NNC(=S)NC1CCCCC1 | – | 35.5 µM [falling, single point] |
| O=C(Nc1cccc(-c2nc3ccccc3[nH]2)c1)c1ccccn1 | 7.94 µM [falling, partial curve] | – |
| CNc1nc(Cl)c(SC)c(NCc2ccc(F)cc2)n1 | 5.62 µM [rising, full curve, poor fit] | – |
| CC1(C)CC(=O)C(N=Nc2cc(S(=O)(=O)N3CCOCC3)ccc2Cl)=C(O)C1 | 0.794 µM [rising, full curve, poor fit] | – |
| O=C(O)c1cc2c(cn1)[nH]c1ccccc12 | 35.5 µM [falling, single point] | – |
| CC1=NN(Cc2ccccc2)C(=O)/C1=C\c1ccc(N(C)C)cc1 | 20.6 µM [rising, partial curve] | 23.1 µM [falling, partial curve, poor fit] |
| CCc1ccc2nc(NC(=O)Cn3cnc4ccccc4c3=O)sc2c1 | 1.12 µM [rising, partial curve, poor fit] | – |
| COC(c1ccccc1)c1nnc(CCC(=O)N(C)CCOc2ccccc2)o1 (centres undefined) | 8.91 µM [rising, partial curve, poor fit] | – |
| Cc1cccc(-c2noc(CCCC(=O)Nc3ccc(C(N)=O)cc3)n2)c1 | 29.1 µM [rising, single point] | 0.411 µM [rising, full curve, poor fit] |
| O=C(NCCCn1ccnc1)c1cc(-c2ccc(Br)cc2)on1 | 35.5 µM [falling, partial curve, poor fit] | – |
| Cc1ccc(C(=O)NCc2ccccn2)o1 | 0.082 µM [rising, full curve, poor fit] | – |

| SMILES | AC50 [1] | AC50 [2] |
| --- | --- | --- |
| Cc1ccc(NC(=O)c2cccc(S(=O)(=O)N(C)c3ccccc3)c2)cc1S(=O)(=O)N1CCOCC1 | 0.411 µM [rising, full curve, poor fit] | – |
| Cc1c(Cl)cccc1NC(=S)N1CCN(c2ccccn2)CC1 | 35.5 µM [rising, single point] | – |
| COc1nnc(-c2ccc(C)c(S(N)(=O)=O)c2)c2ccccc12 | 3.55 µM [rising, partial curve] | – |
| Cn1c(O)c(C2=c3ccccc3=NC2=O)sc1=Nc1ccc(Cl)cc1 | 5.8 µM [falling, partial curve] | – |
| CC(=O)Nc1sc2c(c1C#N)CCC(C)C2 (centres undefined) | 11.2 µM [rising, partial curve, poor fit] | – |
| Cc1ccc[n+](CC2OCc3ccccc3CO2)c1 | 1.26 µM [rising, full curve, poor fit] | – |
| N#Cc1nc(-c2ccc(OCc3ccc(Cl)cc3)cc2)oc1NCc1cccnc1 | 0.282 µM [rising, full curve, poor fit] | – |
| CCOc1ccc(NC(=S)Nc2cc(-c3ccccc3)[nH]n2)cc1 | 0.631 µM [falling, full curve, poor fit] | – |
| C/C(=N/NC(=O)c1ccoc1C)C12CC3CC(CC(C3)C1)C2 | 20.6 µM [falling, partial curve] | – |
| CCOc1cc2nc(-c3ccc(OC)c(OC)c3)nc(N3CCOCC3)c2cc1OC | 2.82 µM [falling, full curve, poor fit] | – |
| Cc1cc(C)c2c(c1)c(C)cc1nnc(SCC(=O)c3cccs3)n12 | 35.5 µM [falling, single point] | – |
| N#CC1=C(N)Oc2cc(O)c(C=Nc3ccccc3)cc2C1c1ccccc1 (centres undefined) | 13 µM [falling, partial curve] | – |
| N#Cc1ccc(COC(=O)C2CCC(=O)N2)cc1 (centres undefined) | 29.1 µM [rising, single point] | – |
| O=S(=O)(NCCc1csc2nc(-c3ccccc3)nn12)c1cccs1 | 7.08 µM [falling, partial curve, poor fit] | – |
| COc1ccc(NC(=S)N(C)CC2COc3ccccc3O2)cc1 (centres undefined) | 35.5 µM [rising, single point] | – |
| CCCn1c(N2CCN(C(=O)NCc3ccccc3)CC2)nc2ccccc21 | 25.1 µM [falling, single point] | – |
| O=C(NCc1ccc2c(c1)OCO2)NC1CCCCC1 | 12.6 µM [rising, partial curve, poor fit] | – |
| CCCc1cc(=O)oc2cc(C)cc(O)c12 | 2.31 µM [rising, full curve] | – |
| CC(=O)Nc1sc2c(c1C(c1ccccc1Cl)N1CCN(CCO)CC1)CCCC2 (centres undefined) | 4.47 µM [falling, partial curve, poor fit] | – |
| CC1CCN(CC2CCN(C(=O)NCc3ccc(F)cc3)CC2)CC1 | 3.16 µM [falling, partial curve] | – |
| O=C(O)c1ccc(Cn2cnc3cccnc32)cc1 | 11.2 µM [rising, partial curve, poor fit] | – |

Reference: PubChem BioAssay AID493014 (National Center for Advancing Translational Sciences (NCATS), 2011)
